According to PubChem BioAssay AID2685 (National Center for Advancing Translational Sciences (NCATS), 2010):
The list shows a part of the results. The main result of the screen is listed elsewhere. These columns were measured beside it and carry no call. Compounds called inactive in the main read-out are mostly missing here. The note in brackets gives the kind of curve behind each potency; many fits are weak.

Assay: qHTS Assay for Lipid Storage Modulators in Drosophila S3 Cells;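 as to cell number change: cells counted by Cell Tracker Red CMTPX staining in the red channel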
Details: BODIPY lipid droplet fluorescence, 18-24 h; for cell number change: measured here: cell count max response, cells fed with added oleic acid
How it was run: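 Drosophila S3 cells loaded with oleic acid (400 uM, as added) and compounds at several concentrations; lipid droplets imaged by 488-nm laser-scanning cytometry, 500–530 nm intensity and object ratio to cell channel. Percent activity normalized to 20 uM Triacsin C.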

[1] = measured here: cell number channel AC50, cells fed with added oleic acid
[2] = measured here: lipid fluorescence (Fed channel) AC50, cells fed with added oleic acid

| SMILES | cell number change [%] | AC50 [1] | AC50 [2] |
| --- | --- | --- | --- |
| COc1ccc(C(=O)/C=C/c2ccc(O)cc2)c(O)c1CC=C(C)C | -50 | 29.1 µM [falling, single point] | – |
| CC1CC(=O)N(CC(=O)Nc2ccc(Br)cc2)c2ccccc2S1(=O)=O (configuration not stated) | -20.2 | – | 29.1 µM [rising, partial curve] |
| O=C(NCC(c1cccs1)N1CCOCC1)c1cn(-c2ccccc2)nc1-c1ccc(Cl)cc1 (configuration not stated) | – | 6.51 µM [rising, single point] | 5.17 µM [rising, full curve] |
| O=C(OCc1cc([N+](=O)[O-])cc2c1OCOC2)c1ccccn1 | -36.6 | 2.91 µM [falling, full curve] | 6.51 µM [falling, full curve] |
| Cc1ccc(S(=O)(=O)Nc2cccc(Cl)c2)cc1NC(=O)c1cccnc1 | – | 2.59 µM [rising, single point] | – |
| Cc1cccc(C)c1-n1c(C)cc(/C=N/NC(N)=S)c1C | 15 | 0.00517 µM [rising, full curve, poor fit] | 0.231 µM [rising, full curve, poor fit] |
| N#Cc1c(Cn2cncn2)nc(=O)n(-c2ccc(Cl)cc2)c1N | -19.6 | – | 1.03 µM [falling, full curve, poor fit] |
| Cc1cccc(-n2c(N)c(-c3nc4ccccc4n3C)c3nc4ccccc4nc32)c1 | – | – | 2.91 µM [falling, partial curve, poor fit] |
| COc1ccc(-n2c(C)ccc2-c2ccccc2)cn1 | – | – | 16.4 µM [falling, single point] |
| CCN(CC)CCn1c2c(c(SCC(=O)Nc3cc(OC)cc(OC)c3)nc1=O)CCC2 | -9.4 | – | – |
| CCCS(=O)(=O)n1nc(-c2ccc(C)cc2)cc1N | 24.3 | – | 8.2 µM [rising, partial curve, poor fit] |
| Cc1cc(Cl)ccc1OCCCC(=O)N1CCCc2ccccc21 | – | 0.116 µM [rising, full curve, poor fit] | 6.51 µM [rising, partial curve, poor fit] |
| Cc1nnc(SC(C)C(=O)Nc2c(C)n(C)n(-c3ccccc3)c2=O)n1N (configuration not stated) | 9.1 | – | – |
| Cc1ccc(NCC(=O)NNC2=NCCC2)c(C)c1 | -0.166 | – | 6.51 µM [falling, single point] |
| COC(=O)c1cc(Br)c(N)cc1OC | -30.7 | – | – |
| CC1CCC2(CC1)NC(=O)N(CC(=O)Nc1ccc3c(c1)OCCCO3)C2=O (configuration not stated) | -6.74 | – | – |
| Cc1ccc(COc2ccccc2C(=S)N2CCCC2)cc1 | 17.1 | – | 29.1 µM [falling, single point] |
| COc1cccc(-n2nnnc2SCC(=O)NC2CCCC2)c1 | 10.5 | – | – |
| COc1ccc(OCC(=O)N/N=C2/C=C(C)CC2)cc1 | – | 4.11 µM [falling, single point] | – |
| N#CC1=C(N)Oc2[nH]c(=S)[nH]c(=O)c2C12C(=O)Nc1ccccc12 (configuration not stated) | – | – | 29.1 µM [falling, single point] |

| SMILES | cell number change [%] | AC50 [1] | AC50 [2] |
| --- | --- | --- | --- |
| COc1ccccc1N(C)S(=O)(=O)c1ccc(C(=O)Nc2nc(C)c(C(C)=O)s2)cc1 | -18.5 | – | 4.11 µM [falling, single point] |
| CC1=Nc2cc(C(=O)NCCCN3CCN(C)CC3)ccc2Sc2ccc(C)cc21 | -14.3 | – | – |
| CN1C(=O)N(c2ccccc2)C(Nc2nncs2)C1(C)C (configuration not stated) | 4.39 | – | 16.4 µM [rising, single point] |
| O=C(Nc1ccccc1)N1CCSc2ccccc21 | -45 | 1.03 µM [falling, full curve, poor fit] | 0.00461 µM [falling, full curve, poor fit] |
| COCCN(Cc1cc2cccc(C)c2[nH]c1=O)C(=O)c1ccccc1 | – | 2.06 µM [rising, partial curve] | 2.59 µM [rising, partial curve] |
| CCOc1ccc(S(=O)(=O)Nc2cccc(N(C)S(C)(=O)=O)c2)cc1 | -23.3 | – | 29.1 µM [falling, single point] |
| CC(C)C(=O)OCC(=O)NCc1ccccc1Cl | -30.5 | 3.66 µM [falling, full curve] | 25.9 µM [falling, single point] |
| CCCc1cc(Nc2ccccc2)n2ncnc2n1 | 0.275 | – | 23.1 µM [rising, single point] |
| Cc1cc([N+](=O)[O-])c(C)cc1-c1ccc(/C=N/n2cnnc2)o1 | -9.52 | – | 6.51 µM [falling, single point] |
| COc1ccc(OC)c(CCNC(=O)CCCc2nnc3n(C)c(=O)c4sccc4n23)c1 | – | – | 1.84 µM [falling, full curve] |
| Cc1cccc(-c2cc3c(nn2)-c2ccccc2C3=O)c1 | 14.2 | 0.461 µM [rising, full curve, poor fit] | – |
| O=c1c(Cl)c(N/N=C/c2ccc(Cl)cc2)cnn1-c1ccccc1 | -37.7 | 29.1 µM [falling, single point] | 29.1 µM [falling, single point] |
| O=C(NCc1cccc2ccsc12)c1cccs1 | 14.5 | – | 4.11 µM [rising, full curve] |
| CC(NC(=O)COc1ccccc1Cl)c1ccccc1 (configuration not stated) | 0.826 | – | 14.6 µM [falling, partial curve, poor fit] |
| CN(C(=O)COc1ccccc1C(=O)NCCOc1ccccc1)c1ccccc1 | -64 | 18.4 µM [falling, partial curve] | 29.1 µM [falling, partial curve, poor fit] |
| COc1cc(/C=C/C(=O)Nc2cccnc2)cc(OC)c1OC | -17.6 | – | 20.6 µM [falling, partial curve, poor fit] |
| COc1ccccc1CNC(c1ccccc1)c1ccccc1 | -15.7 | – | – |
| CCSc1nnc(NC(=O)c2nc(-c3ccccc3)n(-c3ccccc3)n2)s1 | 0.194 | – | 20.6 µM [falling, partial curve] |
| c1csc(-c2nc(N3CCCCC3)no2)c1 | -11.1 | – | 0.82 µM [falling, full curve] |
| CC(C)n1c(SCC(=O)Nc2ccc(N3CCOCC3)cc2)nnc1-c1ccco1 | -16.4 | – | 0.206 µM [rising, single point] |

A few values from above.
cell number change [%] with CCSc1nnc(NC(=O)c2nc(-c3ccccc3)n(-c3ccccc3)n2)s1 reads 0.194
cell number change [%] with COc1ccc(C(=O)/C=C/c2ccc(O)cc2)c(O)c1CC=C(C)C reads -50

Ordered by molar mass (low to high): some entries from above

| SMILES | cell number change [%] | AC50 [1] | AC50 [2] |
| --- | --- | --- | --- |
| CC(C)C(=O)OCC(=O)NCc1ccccc1Cl | -30.5 | 3.66 µM [falling, full curve] | 25.9 µM [falling, single point] |
| CN1C(=O)N(c2ccccc2)C(Nc2nncs2)C1(C)C (configuration not stated) | 4.39 | – | 16.4 µM [rising, single point] |
| COc1cc(/C=C/C(=O)Nc2cccnc2)cc(OC)c1OC | -17.6 | – | 20.6 µM [falling, partial curve, poor fit] |
| CC1=Nc2cc(C(=O)NCCCN3CCN(C)CC3)ccc2Sc2ccc(C)cc21 | -14.3 | – | – |

(further entries)

| SMILES | cell number change [%] | AC50 [1] | AC50 [2] |
| --- | --- | --- | --- |
| C/C(=N\Nc1cc(N2CCCCC2)nc(C)n1)c1ccc(Br)cc1 | -47 | 16.4 µM [falling, single point] | – |
| COc1ccc2[nH]cc(CCNC(=O)Nc3ccccc3C)c2c1 | -8.76 | – | – |
| Cc1ccc(C(=O)OCc2nnc(-c3ccccc3)o2)s1 | 75 | 29.1 µM [rising, single point] | – |
| CCOC(=O)c1[nH]cnc1C(=O)Nc1cccc(Cl)c1 | -43 | 29.1 µM [falling, single point] | – |
| CCOC(=O)Cc1csc(NC(=S)NC(=O)c2ccccc2)n1 | 12.3 | – | 0.731 µM [rising, full curve] |
| Cc1cccc(N2C(S)=C(C#N)C(=O)NC23CCCCC3)c1 | -28.9 | 1.64 µM [rising, partial curve] | 2.06 µM [rising, partial curve] |
| COc1ccc(NC(=O)CCC(=O)c2ccc(-c3ccccc3)cc2)cc1 | 56 | 0.00517 µM [falling, full curve, poor fit] | – |
| Cc1cc(C)cc(OCCn2nnc3ccccc32)c1 | -9.39 | – | 29.1 µM [falling, single point] |
| Cc1c(C(=O)N(C)C)sc(NC(=O)c2cccc([N+](=O)[O-])c2)c1C#N | -43.2 | 20.6 µM [falling, partial curve] | 16.4 µM [falling, partial curve] |
| O=c1[nH]c(=S)[nH]c2[nH]c(=S)[nH]c12 | -12.7 | – | – |
| CCOc1ccccc1N1CC(C(=O)NCCOc2ccccc2OC)CC1=O (configuration not stated) | -8.78 | – | 11.6 µM [rising, partial curve, poor fit] |
| Cc1ccc(Cl)cc1N1CCN(C(=O)Cc2csc(Nc3nc(=S)[nH]c4ccccc34)n2)CC1 | – | 0.00411 µM [rising, partial curve, poor fit] | – |
| Cn1c(N)c(C(=O)COC(=O)C(Cc2ccccc2)NC(=O)c2ccccc2)c(=O)n(C)c1=O (configuration not stated) | -5.54 | – | – |
| O=C(CN1CCN(C2CCCCC2)CC1)c1ccc2cc[nH]c2c1 | 65.9 | 14.6 µM [rising, partial curve] | 20.6 µM [rising, single point] |
| Cc1csc(NC(=O)c2cnc3ccccc3n2)n1 | – | – | 0.116 µM [falling, partial curve, poor fit] |
| Cn1c(=O)n(CCN2CCOCC2)c(=O)c2c1nc1n2CCN1c1ccc(Oc2ccccc2)cc1 | -15.8 | 0.00517 µM [falling, full curve, poor fit] | 0.00731 µM [falling, full curve, poor fit] |
| COc1ccc(C)cc1NC(=O)CN(c1ccc(C)cc1)S(C)(=O)=O | 7.32 | – | – |
| Nc1nn2c(-c3ccccc3)cc(=O)[nH]c2c1N=Nc1ccc(O)cc1 | -37.1 | 25.9 µM [falling, single point] | 23.1 µM [falling, single point] |
| COc1cccc(-c2sc3ccc(OC)cc3c2C#CC2(O)CCCCC2)c1 | -33.8 | 7.31 µM [falling, single point] | 0.116 µM [falling, single point] |
| CN(CC(=O)Nc1cccc(F)c1)C(=O)c1cn(-c2ccccc2)nc1-c1ccc(Cl)cc1 | – | – | 25.9 µM [falling, partial curve] |
